Measured values taken from US6342481B1 (priority 1993, dated 2002).

Assay: general procedure: solution-phase peptide synthesis; BOP/HOBT/TEA; PyBrop/DIPEA; DCC/N-hydroxysuccinimide
Settings: coupling step, acetate (AcOH), TFA for some

Substance | crude HPLC purity [%]
Z-Gly-(Et)Lys(Boc)-Pro-DArg-OH | 82
Z-Gly-(Et)Lys(Boc)-Pro-Leu-OtBu | >99
Z-Gly-(Et)Lys(Boc)-Pro-Lys(Boc)-OtBu | 90
Z-Leu-(Et)Lys(Boc)-Pro-Arg-OH | 84

Same assay, conditions: late stage modification step, TFA

Substance | final HPLC purity [%]
Z-Leu-(Et)Lys-Pro-Arg-OH.TFA | 98

Same assay, conditions: late stage modification step, acetate (AcOH), TFA for some

Substance | final HPLC purity [%]
Cbz-[Sar]KPR-OH | >95
H-Gly-(Et)Lys-Pro-Lys-OH.AcOH | 98.9
H-Sar-Lys-Pro-Arg-OH.2AcOH | >99
PEPTIDE1{G.[EtLys].P.L}$$$$V2.0 | 98
PEPTIDE1{G.[EtLys].P.[dR]}$$$$V2.0 | 98.1
PEPTIDE1{L.[EtLys].P.R}$$$$V2.0 | 97
Z-Gly-(Et)Lys-Pro-DArg-OH.TFA | 98.9

Same assay, conditions: purification step, acetate (AcOH), TFA for some

Substance | final HPLC purity [%]
Z-Gly-(Et)Lys-Pro-Arg-OH.2AcOH | 97.5

Same assay, conditions: whole synthesis, acetate (AcOH), TFA for some

Substance | final HPLC purity [%]
H-Gly-(Bzl)Lys-Pro-Arg-OH.2AcOH | >99
PEPTIDE1{G.P.P.R}$$$$V2.0 | >98
PEPTIDE1{G.[isoBuLys].P.R}$$$$V2.0 | >98

Strings that start with PEPTIDE1 are HELM notation: dots part the residues, brackets hold end groups and non-standard residues. Non-standard residues stand in square brackets, D forms with d. *: point of attachment. Cbz = O=C(OCc1ccccc1)*; Sar = CNCC(=O)O
